Results taken from PMC3303803, “Identification of the First Functional Toxin-Antitoxin System in Streptomyces” (PLoS ONE, 2012).
These are yes or no findings as the source states them, for the method shown. Some binding calls cover weakened binding; strength is not graded here. Tags and fused reporters may be left off the sequences shown.

Target: T1, S. lividans toxin YoeB-His6sl (Streptomyces lividans) (UniProt Q9Z4V8)
T1 sequence: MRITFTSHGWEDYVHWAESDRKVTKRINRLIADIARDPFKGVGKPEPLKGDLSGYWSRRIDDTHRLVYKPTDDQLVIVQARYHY
Assay: co-purification on NTA-Ni resin

B1: S. lividans antitoxin YefMsl (untagged, co-expressed with YoeB-His6sl from pET22b-TA) (protein, UniProt Q9Z4V7 1-87)
chain: MSITASEARQNLFPLIEQVNEDHAPVHITSRKGNAVLMSEEDFTAWTETVHLLRSPRNARRLLDSIAEAEAGDATEHDLIDPDAERA
With B1 the binding was “binds”.
